Test results: paper PMC11866873
Results are given in words; binding and its absence hold for the method and conditions named. Binding seen in cells or lysates may run through a third protein. Some binding calls cover weakened binding; strength is not graded here.

The chains behind the UniProt entries cited, without tags or fusion partners.
UniProt Q6UXN9: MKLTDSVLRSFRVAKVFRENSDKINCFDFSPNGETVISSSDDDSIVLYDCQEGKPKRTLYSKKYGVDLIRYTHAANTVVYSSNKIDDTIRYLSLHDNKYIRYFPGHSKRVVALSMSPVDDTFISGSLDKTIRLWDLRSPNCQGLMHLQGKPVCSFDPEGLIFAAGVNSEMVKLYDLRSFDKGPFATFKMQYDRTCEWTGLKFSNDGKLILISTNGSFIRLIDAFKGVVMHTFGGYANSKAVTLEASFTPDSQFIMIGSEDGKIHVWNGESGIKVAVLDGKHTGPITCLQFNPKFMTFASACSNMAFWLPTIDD

Target: T1, Serine/threonine-protein phosphatase 1 regulatory subunit 10 (human (endogenous in MDA-MB-231)) (UniProt Q96QC0)
T1 sequence: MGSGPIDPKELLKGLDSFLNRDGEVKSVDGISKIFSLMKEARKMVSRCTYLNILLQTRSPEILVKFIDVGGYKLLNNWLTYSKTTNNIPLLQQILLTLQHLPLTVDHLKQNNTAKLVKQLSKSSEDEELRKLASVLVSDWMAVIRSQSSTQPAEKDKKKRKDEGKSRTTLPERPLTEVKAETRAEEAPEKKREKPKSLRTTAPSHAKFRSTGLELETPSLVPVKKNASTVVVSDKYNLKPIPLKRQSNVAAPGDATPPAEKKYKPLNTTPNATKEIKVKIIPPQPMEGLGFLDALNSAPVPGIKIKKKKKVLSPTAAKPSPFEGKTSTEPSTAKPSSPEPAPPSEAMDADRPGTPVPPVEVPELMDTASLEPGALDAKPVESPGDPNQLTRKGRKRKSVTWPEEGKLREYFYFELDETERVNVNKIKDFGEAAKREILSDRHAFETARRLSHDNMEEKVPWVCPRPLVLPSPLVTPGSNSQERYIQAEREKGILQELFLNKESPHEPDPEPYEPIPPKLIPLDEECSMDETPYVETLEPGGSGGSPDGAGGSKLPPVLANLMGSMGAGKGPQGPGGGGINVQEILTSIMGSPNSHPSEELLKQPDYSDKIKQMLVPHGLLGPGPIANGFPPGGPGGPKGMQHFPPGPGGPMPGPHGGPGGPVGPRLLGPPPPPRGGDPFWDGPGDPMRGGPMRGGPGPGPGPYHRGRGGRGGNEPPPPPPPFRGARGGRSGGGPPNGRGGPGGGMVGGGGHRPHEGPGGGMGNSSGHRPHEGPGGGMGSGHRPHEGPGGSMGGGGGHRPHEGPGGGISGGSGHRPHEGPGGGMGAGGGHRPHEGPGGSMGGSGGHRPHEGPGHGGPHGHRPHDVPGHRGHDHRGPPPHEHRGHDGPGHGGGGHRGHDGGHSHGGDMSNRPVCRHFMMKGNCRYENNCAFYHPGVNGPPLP
Test: co-IP; lysates of control and AEP KD MDA-MB-231 cells (20 mM Tris pH 7.5, 150 mM NaCl, 1 mM EDTA, 1% NP40); anti-PPP1R10 on Dynabeads Protein G, 45 min at RT; immunoblot for WDR82

- binding: binds
Substance: WD repeat-containing protein 82 (from UniProt Q6UXN9 1-313)
